Results on ten compounds are retold here after PubChem BioAssay AID624504 (Sanford-Burnham Center for Chemical Genomics, 2012).

Molecules are shown by their SMILES. The entries are a selection whose mix differs from that of the whole data set. Active and inactive are the calls of the source. Cut-off read from the data, not from the text of the source: active = inhibition above about 22%; inactive = the rest.

The test is described as follows: fluorescence retest of MPTP screen hits in isolated mitochondria, single concentration (AID 624504).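 Note: 0% = DMSO vehicle and 100% = positive control.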 The conditions noted are these: membrane potential, Rhodamine 123 fluorescence, at 10 µM, active compounds read high.
On to `CC(C)C(=O)NC(Nc1cc(C(F)(F)F)ccc1Cl)C(Cl)(Cl)Cl` (stereo not given), for which the inhibition was active: 87.3%.

Regarding `CC(C)(C)C1CCC2(CC1)C(C#N)=C(SCC(=O)Nc1ccccc1)NC(=O)C2C#N` (stereo not given), the inhibition was active: 80%.

In the case of `O=C(Nc1ccccc1)c1ccccc1NS(=O)(=O)c1ccc(Cl)s1`, the inhibition was active: 106%.

On to `Cc1ccc(-c2cc(C(=O)N3N=C(C(F)F)CC3(O)C(F)F)c3ccccc3n2)cc1C` (stereo not given), for which the inhibition is active: 78.1%.

On to `O=[N+]([O-])c1ccc(-c2nc(-c3cccs3)c(-c3cccs3)[nH]2)cc1`, for which the inhibition was active: 60.7%.

As to `CCc1ccc(-n2cccc2/C=C2/C(=N)N3C(=NC2=O)SN=C3S(C)(=O)=O)cc1`, the inhibition was active: 57.5%.

In the case of `COc1cccc(C(=O)NN/C(C)=C/C(=O)C(F)(F)C(F)(F)C(F)(F)F)c1`, the inhibition was active: 70%.

In the case of `O=C(Nc1ccncc1)c1ccc(-c2ccccc2)cc1`, the inhibition is active: 98.3%.

For the compound `Cc1ccc(S(=O)(=O)N2CCN(c3ncnc4ccccc34)CC2)cc1`, the inhibition was active: 78.4%.

`Cc1cc(/C=C\c2ccc3cc(N(C)C)ccc3[n+]2C)c(C)n1-c1ccccc1`: the inhibition was active: 77%.
